Results reported in paper doi:10.1101/2025.06.10.658938 (bioRxiv, 2025).
Like-named read-outs stand apart in the source and are kept apart here. No constants are given. Whether binding was seen depends on the method and setting. In cells and extracts the contact can be indirect. For some assays here: Tags and fused reporters may be left off the sequences shown. Each block holds one molecule with its values, some of them ahead of it.

Protein sequences, listed by entry. Tags and fused reporters are not part of them. Residues count along the entry.
UniProt Q16602, residues 23-461: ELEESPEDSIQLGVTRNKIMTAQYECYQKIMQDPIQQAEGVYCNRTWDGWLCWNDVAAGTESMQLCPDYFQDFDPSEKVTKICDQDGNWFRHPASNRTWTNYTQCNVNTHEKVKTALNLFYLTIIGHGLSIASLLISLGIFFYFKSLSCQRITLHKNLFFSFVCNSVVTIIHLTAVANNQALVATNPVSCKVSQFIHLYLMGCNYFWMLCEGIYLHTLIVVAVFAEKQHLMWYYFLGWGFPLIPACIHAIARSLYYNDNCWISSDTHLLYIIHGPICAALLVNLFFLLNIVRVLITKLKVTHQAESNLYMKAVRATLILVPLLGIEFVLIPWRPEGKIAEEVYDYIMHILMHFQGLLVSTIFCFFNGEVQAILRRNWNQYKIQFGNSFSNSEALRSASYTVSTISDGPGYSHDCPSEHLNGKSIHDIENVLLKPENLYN
UniProt Q07108, residues 3-199: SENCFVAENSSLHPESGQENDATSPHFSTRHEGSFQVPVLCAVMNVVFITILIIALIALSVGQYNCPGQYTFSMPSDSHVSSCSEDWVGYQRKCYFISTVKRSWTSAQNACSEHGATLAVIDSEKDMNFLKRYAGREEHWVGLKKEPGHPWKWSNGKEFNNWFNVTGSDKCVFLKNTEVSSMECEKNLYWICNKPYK
UniProt P01732, residues 22-235: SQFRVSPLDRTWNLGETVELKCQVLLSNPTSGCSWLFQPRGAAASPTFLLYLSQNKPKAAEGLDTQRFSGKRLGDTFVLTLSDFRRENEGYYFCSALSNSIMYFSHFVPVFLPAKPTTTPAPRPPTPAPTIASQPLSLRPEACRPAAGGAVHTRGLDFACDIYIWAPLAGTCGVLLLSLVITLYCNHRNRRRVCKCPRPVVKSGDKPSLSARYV

What was measured:
Experiment in all cases: split reporter
[1] = molecular target: T1, mouse erythropoietin receptor (EpoR), smBit-tagged Target construct (mouse) (UniProt P14753)
T1 sequence: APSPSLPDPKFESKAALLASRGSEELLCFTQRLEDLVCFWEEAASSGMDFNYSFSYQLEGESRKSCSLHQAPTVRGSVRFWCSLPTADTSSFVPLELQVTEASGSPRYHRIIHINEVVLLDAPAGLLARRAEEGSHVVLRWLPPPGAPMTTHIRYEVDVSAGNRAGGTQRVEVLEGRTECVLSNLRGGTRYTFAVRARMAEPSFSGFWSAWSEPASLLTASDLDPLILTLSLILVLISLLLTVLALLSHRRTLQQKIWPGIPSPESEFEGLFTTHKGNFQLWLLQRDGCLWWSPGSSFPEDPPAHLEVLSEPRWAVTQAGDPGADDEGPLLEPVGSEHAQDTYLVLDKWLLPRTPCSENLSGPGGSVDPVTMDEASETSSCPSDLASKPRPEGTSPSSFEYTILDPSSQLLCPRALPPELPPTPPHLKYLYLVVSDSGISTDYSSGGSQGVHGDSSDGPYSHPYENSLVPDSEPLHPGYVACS

[2] = molecular target: calcitonin-like receptor (CLR), smBit-tagged Target construct (UniProt Q16602)
[3] = molecular target: calcitonin-like receptor (CLR), smBit-tagged Target construct (UniProt Q16602); remark: listed apart in the source
[4] = molecular target: calcitonin-like receptor (CLR), smBit-tagged Target construct (UniProt Q16602); remark: listed apart in the source
[5] = molecular target: calcitonin-like receptor (CLR), smBit-tagged Target construct (UniProt Q16602); remark: listed apart in the source

- binding [1]: no binding
Molecule: CD69, LgBit-tagged Binder construct (wild type) (from UniProt Q07108 3-199)

- binding [2]: no binding
- binding [3]: no binding
- binding [4]: no binding
Molecule: CD8a, LgBit-tagged Binder construct (from UniProt P01732 22-235)

- binding [5]: no binding
B1: erythropoietin receptor (EpoR) used as LgBit-tagged non-specific Binder (receptor, UniProt P14753 25-507)
chain: T1 sequence
